Among the data in publication PMC6347170 are binding values, retold here.

The target of experiment [1] is T1, Sec61S353C (S. cerevisiae) (UniProt P32915).
T1 sequence: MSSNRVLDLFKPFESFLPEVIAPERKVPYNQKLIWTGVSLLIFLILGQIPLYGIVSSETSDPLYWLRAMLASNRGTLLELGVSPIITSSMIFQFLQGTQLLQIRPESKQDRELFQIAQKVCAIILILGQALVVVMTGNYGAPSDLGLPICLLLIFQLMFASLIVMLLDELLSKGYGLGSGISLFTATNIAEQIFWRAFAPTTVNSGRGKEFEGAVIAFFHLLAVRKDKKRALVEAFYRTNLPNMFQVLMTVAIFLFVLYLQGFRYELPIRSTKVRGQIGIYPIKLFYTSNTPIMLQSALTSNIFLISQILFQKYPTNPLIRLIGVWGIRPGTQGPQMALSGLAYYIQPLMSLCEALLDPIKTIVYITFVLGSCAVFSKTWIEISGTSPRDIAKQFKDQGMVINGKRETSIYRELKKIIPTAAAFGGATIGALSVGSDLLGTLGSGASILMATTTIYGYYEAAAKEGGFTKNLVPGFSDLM
The experiment is described as follows: cross-linking + co-IP; [35S]-labelled crude microsomes crosslinked with SMPH, LC-SPDP or SDAD, denatured, precipitated with anti-Sec61 N-terminus, crosslinker cleaved with DTT, released Mpd1-HA precipitated with anti-HA; phosphorimaging.

Experiment [2] has as its target T2, Sec61 (wildtype) (S. cerevisiae) (UniProt P32915).
T2 sequence: T1 sequence with C353S
The description is as above.

The target in experiment [3] is T3, His14-Sec61S353C (S. cerevisiae) (UniProt P32915).
T3 sequence: T1 sequence
The experiment is described as follows: cross-linking; yeast microsomes (17 eq) in B88 pH 7.2 crosslinked with 1 mM SMPH (non-cleavable) or LC-SPDP (cleavable), 30 min on ice; SDS-PAGE and immunoblot with anti-Sec61 N-terminus and anti-Sec63; also after urea (no effect) or carbonate extraction (reduced crosslinking to Sss1 and Sec63). (Immunoblotting shows a protein as a band on a membrane.)

In experiment [4] the target is T1, Sec61S353C (S. cerevisiae). The experiment is described as above.
Experiment [5] has as its target T2, Sec61 (wildtype) (S. cerevisiae). The experiment is described as above.

Changes are numbered by the printed parent chain. These are yes or no findings as the source states them, for the method shown. In cells and extracts the contact can be indirect. Some binding calls cover weakened binding; strength is not graded here. For some of these results: Sequences can lack the tags named with a protein.

B1: Mpd1-HA (protein, UniProt Q12404 22-318)
chain: QNFYDSDPHISELTPKSFDKAIHNTNYTSLVEFYAPWCGHCKKLSSTFRKAAKRLDGVVQVAAVNCDLNKNKALCAKYDVNGFPTLMVFRPPKIDLSKPIDNAKKSFSAHANEVYSGARTLAPIVDFSLSRIRSYVKKFVRIDTLGSLLRKSPKLSVVLFSKQDKISPVYKSIALDWLGKFDFYSISNKKLKQLTDMNPTYEKTPEIFKYLQKVIPEQRQSDKSKLVVFDADKDKFWEYEGNSINKNDISKFLRDTFSITPNEGPFSRRSEYIAYLKTGKKPIKKNHSSSGNKHDEL
On to B1, for which the binding result in experiment [1] and in experiment [2] was “binds” each time.

B2: Sec63 (protein, UniProt P14906 1-663)
chain: MPTNYEYDEASETWPSFILTGLLMVVGPMTLLQIYQIFFGANAEDGNSGKSKEFNEEVFKNLNEEYTSDEIKQFRRKFDKNSNKKSKIWSRRNIIIIVGWILVAILLQRINSNDAIKDAATKLFDPYEILGISTSASDRDIKSAYRKLSVKFHPDKLAKGLTPDEKSVMEETYVQITKAYESLTDELVRQNYLKYGHPDGPQSTSHGIALPRFLVDGSASPLLVVCYVALLGLILPYFVSRWWARTQSYTKKGIHNVTASNFVSNLVNYKPSEIVTTDLILHWLSFAHEFKQFFPDLQPTDFEKLLQDHINRRDSGKLNNAKFRIVAKCHSLLHGLLDIACGFRNLDIALGAINTFKCIVQAVPLTPNCQILQLPNVDKEHFITKTGDIHTLGKLFTLEDAKIGEVLGIKDQAKLNETLRVASHIPNLKIIKADFLVPGENQVTPSSTPYISLKVLVRSAKQPLIPTSLIPEENLTEPQDFESQRDPFAMMSKQPLVPYSFAPFFPTKRRGSWCCLVSSQKDGKILQTPIIIEKLSYKNLNDDKDFFDKRIKMDLTKHEKFDINDWEIGTIKIPLGQPAPETVGDFFFRVIVKSTDYFTTDLDITMNMKVRDSPAVEQVEVYSEEDDEYSTDDDETESDDESDASDYTDIDTDTEAEDDESPE
Take B2: the binding result in experiment [3] and in experiment [4] was “binds” each time.

B3: Sss1 (protein, UniProt P35179 1-80)
chain: MARASEKGEEKKQSNNQVEKLVEAPVEFVREGTQFLAKCKKPDLKEYTKIVKAVGIGFIAVGIIGYAIKLIHIPIRYVIV
For the molecule B3, the binding entry in experiment [3], in experiment [4] and in experiment [5] was “binds” in each case.
